Data as given in PubChem BioAssay AID1224826 (NIAID, 2016).

Assay: 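Regulators of Tlr4 signalling leading to Tnf-alpha expression in macrophages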 (primary screen)
Cells: RAW264.7 G9 macrophages from mouse bearing reporters for p65 (GFP) and the Tnf promoter (mCherry)
Reagents: siRNA pool against mouse genes, 100 nM
Duration: 16 h of LPS stimulation, after 2 days of siRNA transfection
Challenge: bacterial lipopolysaccharide (Salmonella minnesota R595), 10 ng/ml
Measurement: 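Imaged Tnf reporter mCherry in nuclei, minus background, normalised per plate to the median and expressed as robust z-scores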
Reading the numbers: Tnf reporter robust z-score: higher = stronger Tnf promoter reporter signal after LPS; Tnf reporter intensity: higher = stronger Tnf promoter reporter signal
Call rule: 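Called active when robust z-score is at most -1.3, matching the median of the Tlr4 knock-down control, or over 3; control wells and wells with under 50 cells never active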
Meaning of the calls: active = Tnf reporter clearly lowered or raised; inactive = no clear change in Tnf reporter
In all, the deposit lists about 17,000 reagents; shown is a random part of them. About 1,110 of all reagents (6.6%) were called active. 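Active means lowered or raised reporter signal; replicate intensities are raw and not normalised per plate.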 Entries without a mark were called inactive.

| target gene | Tnf reporter robust z-score | fewer than 50 cells in well | Tnf reporter intensity, replicate 1 | Tnf reporter intensity, replicate 2 |
| --- | --- | --- | --- | --- |
| Armc9 | – | fewer than 50 cells per well; well left out of calls | 202 | 64.5 |
| Or4m1 | – | fewer than 50 cells per well; well left out of calls | 87.2 | 105 |
| Cebpz | -0.21 | enough cells in well | 220 | 202 |
| Rpp25 | -0.7 | enough cells in well | 95.1 | 100 |
| B3gat2 | 1.35 | enough cells in well | 264 | 224 |
| 1700082M22Rik | – | fewer than 50 cells per well; well left out of calls | 96.8 | 53.1 |
| Vip | -1.34 (active) | enough cells in well | 172 | 30.8 |
| Gar1 | -0.84 | enough cells in well | 167 | 80.7 |
| Ftl1 | 1.97 | enough cells in well | 478 | 184 |
| Or2ag2b | 1.93 | enough cells in well | 109 | 262 |
| D930030K17Rik | -0.65 | enough cells in well | 143 | 130 |
| Or6z7 | -0.25 | enough cells in well | 71.5 | 107 |
| Dph3 | 1.04 | enough cells in well | 332 | 100 |
| Mypn | -0.79 | enough cells in well | 170 | 62.7 |
| LOC67527 | 4.98 (active) | enough cells in well | 536 | 252 |
| Cpne8 | 2.22 | enough cells in well | 296 | 336 |
| Nudcd3 | 1.22 | enough cells in well | 245 | 345 |
| Rex1bd | – | fewer than 50 cells per well; well left out of calls | 252 | 125 |
| Tc2n | -0.9 | enough cells in well | 133 | 87.7 |
| Gnb1 | 1.02 | enough cells in well | 258 | 452 |
| Slc1a4 | 0.36 | enough cells in well | 107 | 120 |
| Dgkq | -0.5 | enough cells in well | 125 | 164 |
| Lamb1 | -0.82 | enough cells in well | 184 | 101 |
| Baz1b | -0.54 | enough cells in well | 113 | 141 |
| Tmem179 | 1.09 | enough cells in well | 302 | 238 |
| Shfl | 0.4 | enough cells in well | 154 | 185 |
| Paqr8 | – | fewer than 50 cells per well; well left out of calls | 209 | 67.2 |
| Hcar2 | 0.47 | enough cells in well | 249 | 341 |
| Trip4 | 0.04 | enough cells in well | 230 | 237 |
| Apol8 | -2.05 (active) | enough cells in well | 52.5 | 60.2 |
| Cfap57 | 0.09 | enough cells in well | 316 | 66.9 |
| Cts8 | -0.73 | enough cells in well | 99.4 | 174 |
| Hoxb9 | 0.07 | enough cells in well | 246 | 172 |
| Or5b120 | -0.34 | enough cells in well | 150 | 114 |
| Oprd1 | -1.82 (active) | enough cells in well | 125 | 20.5 |
| Atrx | -0.28 | enough cells in well | 141 | 134 |
| Srprb | – | fewer than 50 cells per well; well left out of calls | 82 | 58.4 |
| Aoc1 | -1.23 | enough cells in well | 93.3 | 91.7 |
| Tbrg4 | -0.76 | enough cells in well | 197 | 84.2 |
| Eif3b | -1.67 (active) | enough cells in well | 91.9 | 110 |

Entries listed so far whose gene name starts with C or c:
| target gene | Tnf reporter robust z-score | fewer than 50 cells in well | Tnf reporter intensity, replicate 1 | Tnf reporter intensity, replicate 2 |
| --- | --- | --- | --- | --- |
| Cebpz | -0.21 | enough cells in well | 220 | 202 |
| Cpne8 | 2.22 | enough cells in well | 296 | 336 |
| Cfap57 | 0.09 | enough cells in well | 316 | 66.9 |
| Cts8 | -0.73 | enough cells in well | 99.4 | 174 |
